# Data published in paper PMC4756849, “A novel high-throughput activity assay for the Trypanosoma brucei editosome enzyme REL1 and other RNA ligases” (Nucleic Acids Research, 2015).
# No constants are given. Whether binding was seen depends on the method and setting. Some binding calls cover weakened binding; strength is not graded here. Where a sequence is shown, tags or fusion partners need not be part of it.
# B1: Trypanosoma brucei RNA editing ligase 1 (REL1), amino acids 51-469 (enzyme, UniProt P86927 51-469)
# chain: DQSDFSPYIEIDLPSESRIQSLHKSGLAAQEWVACEKVHGTNFGIYLINQGDHEVVRFAKRSGIMDPNENFFGYHILIDEFTAQIRILNDLLKQKYGLSRVGRLVLNGELFGAKYKHPLVPKSEKWCTLPNGKKFPIAGVQIQREPFPQYSPELHFFAFDIKYSVSGAEEDFVLLGYDEFVEFSSKVPNLLYARALVRGTLDECLAFDVENFMTPLPALLGLGNYPLEGNLAEGVVIRHVRRGDPAVEKHNVSTIIKLRCSSFMELKHPGKQKELKETFIDTVRSGALRRVRGNVTVISDSMLPQVEAAANDLLLNNVSDGRLSNVLSKIGREPLLSGEVSQVDVALMLAKDALKDFLKEVDSLVLNTTLAFRKLLITNVYFESKRLVEQKWKELMQEEAAAQSEAIPPLSPAAPTKGE
# Molecular target: T1, KREPA2 (MP63) fragment, amino acids 56-176, with N-terminal 6xHis-tag and linker (Trypanosoma brucei)
# T1 sequence: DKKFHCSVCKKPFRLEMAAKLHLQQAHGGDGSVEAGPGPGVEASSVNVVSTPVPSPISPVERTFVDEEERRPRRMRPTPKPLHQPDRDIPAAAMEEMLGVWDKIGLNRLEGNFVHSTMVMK
# Assay: co-purification by IMAC of co-expressed proteins; REL1(51-469) and 6xHis-KREPA2(56-176) co-expressed in E. coli; cleared lysate (20 mM Tris/HCl pH 8.0, 500 mM NaCl, 10% glycerol, 2 mM DTT) on Ni2+ HiTrap FF IMAC by the His tag of KREPA2; wash 40 mM imidazole, elution 40-500 mM imidazole gradient; SDS-PAGE
binder,measurement,value
B1,binding,binds
